Some of the results follow. Repeats are few or missing, and single values can be far off.
test system: Geomyces destructans; experiment: growth inhibition relative to DMSO control; higher = stronger growth inhibition; settings: 10 µM; 15 °C; incubation time 10 days

| Compound | growth inhibition [%] |
| --- | --- |
| CC(=O)[C@@]1(O)CC[C@H]2[C@@H]3C[C@H](C)C4=CC(=O)C=C[C@]4(C)[C@@]3(F)[C@@H](O)C[C@@]21C | 4.06 |
| CCc1nc(N)nc(N)c1-c1ccc(Cl)cc1 | -5.2 |
| COC(=O)CCCOc1ccc(Cl)cc1Cl | -6.37 |
| CC(C)c1c(O)c(-c2cc3c(c(C(C)C)c2O)CCC2C(C)(C)CCC[C@]32C)cc2c1CCC1C(C)(C)CCC[C@]21C (stereo not given in full) | -4.06 |
| C1CCC(C(CC2CCCCN2)C2CCCCC2)CC1 (stereo not given) | -2.05 |
| O=c1cc(CO)occ1O | -9.28 |
| C[C@@H]1CC[C@H]2[C@](C)(CO)[C@@H](O)CC[C@]2(C)[C@@]12CC[C@@](CO)(CCO)O2 | -6.9 |
| CC1(C)C=Cc2c(cc3occ(-c4ccc5c(c4)OCO5)c(=O)c3c2O)O1 | 1.65 |
| COc1ccc2c(c1)OC/C(=C/c1ccc(OC)c(OC)c1)C2=O | -3.93 |
| O=C(O)C1CC([C@@H]2CCCCN2)CN2CCCCC12 (stereo not given in full) | -1.12 |
| COc1cc(C(=O)NCc2ccc(OCCN(C)C)cc2)cc(OC)c1OC | -14.9 |
| COc1c(CC=C(C)C)c2c(c3oc(=O)c(-c4ccc(OC(C)=O)cc4)c(OC(C)=O)c13)C=CC(C)(C)O2 | -1.02 |
| C[C@](N)(Cc1ccc(O)c(O)c1)C(=O)O | -8.53 |
| O=C1c2ccc(O)cc2OC(c2cc(O)c(O)c(O)c2)C1O (stereo in doubt) | -3.05 |
| C=CC(C1=CC(=O)C(OC)=CC1=O)c1ccccc1 (stereo not given) | 4.18 |
| C[C@H]1c2cccc(O)c2C(=O)C2=C(O)[C@]3(O)C(=O)C(C(N)=O)=C(O)[C@@H](N(C)C)[C@@H]3[C@@H](O)[C@@H]21 | 3.82 |
| CC1(C)CC2C1(O)CCC1(C)C=CC(O)C21CO (stereo not given) | -19.1 |
| COc1c(CC(=O)c2cc3c(cc2O)OC(C)(C)C(O)C3)ccc2c1C=CC(C)(C)O2 (stereo not given) | 0.0787 |
| CC[C@H]1C(=O)OC[C@@H]1Cc1cncn1C | -0.882 |
| Cc1onc(-c2ccccc2Cl)c1C(=O)N[C@@H]1C(=O)N2[C@@H]1SC(C)(C)[C@@H]2C(=O)O | -1.84 |
| CN[C@H](CC(=O)O)C(=O)O | -12.5 |
| NS(=O)(=O)c1cc2c(cc1Cl)NC(C(Cl)Cl)NS2(=O)=O (stereo not given) | -24.9 |
| CCC[C@H]1CC2=C(C[C@@H](CC)CC3=C1C(=O)OC3=O)C(=O)OC2=O | -24.3 |

| Compound | growth inhibition [%] |
| --- | --- |
| CN[C@@H]1[C@H](O)[C@H](NC)[C@H]2O[C@@]3(O)C(=O)C[C@@H](C)O[C@H]3O[C@@H]2[C@H]1O | -9.36 |
| CC(C)CCC[C@@H](C)[C@H]1CC[C@H]2[C@@H]3CC(=O)[C@H]4C[C@@H](O)CC[C@]4(C)[C@H]3CC[C@]12C [5alpha-CHOLESTAN-3beta-OL-6-ONE] | -3.46 |
| NCCCC(=O)O [gamma-AMINOBUTYRIC ACID] | -14 |
| CC(=O)O[C@@H]1CC2C(C)(C)C(=O)[C@@H]3O[C@@H]3[C@]2(C)C2CC[C@]3(C)C(=CC(=O)O[C@H]3c3ccoc3)[C@@]21C (stereo partly drawn) [1 (2)alpha-EPOXYDEOXYDIHYDROGEDUNIN] | 1.89 |
| NC(=O)NCC(N)C(=O)O (stereo not given) | 5.16 |
| CC(=O)Oc1cc(OC(C)=O)c2c(c1)O[C@H](c1ccc(OC(C)=O)c(OC(C)=O)c1)[C@@H](OC(C)=O)C2 | -3.24 |
| N=c1[nH]c(=O)c2[nH]c(=O)c(=O)[nH]c2[nH]1 | -9.66 |
| C[C@@H]1NC(=O)[C@@H](N)CNC(=O)[C@H](C2CCNC(=N)N2)NC(=O)/C(=C/NC(N)=O)NC(=O)[C@H](CNC(=O)CC(N)CCCN)NC1=O.N=C1NCC[C@H]([C@@H]2NC(=O)/C(=C/NC(N)=O)NC(=O)[C@H](CNC(=O)C[C@@H](N)CCCN)NC(=O)[C@H](CO)NC(=O)[C@@H](N)CNC2=O)N1 | -4.77 |
| C=C[C@@](C)(O)CCC1C(=C)CCC2[C@@](C)(CO)CCC[C@]12C (stereo not given in full) | -18.4 |
| NC/C=C/C(=O)O | -34.3 |
| C[n+]1c2cc(N)ccc2cc2ccc(N)cc21 | -24.9 |
| COc1ccc(-c2coc3cc(OC)ccc3c2=O)cc1 | 17.6 |
| C=C(C)C1(O)OC(=O)C=C1OC (stereo not given) | -12.2 |
| O=C(N[C@H](CO)[C@H](O)c1ccc([N+](=O)[O-])cc1)C(Cl)Cl | -12.5 |
| O=C(O)CCNC(=O)c1ccccc1 | -34.1 |
| CCC[C@@H]1C[C@@H](C(=O)N[C@@H]([C@H]2O[C@H](SC)[C@H](O)[C@@H](O)[C@H]2O)[C@H](C)Cl)N(C)C1 | -4.04 |
| Cn1cnc2c1c(=O)[nH]c(=O)n2C | -28.9 |
| CC1OC(OC2C(O)COC(OC3C(C)OC(OC4C(OC(=O)C56CCC(C)(C)CC5C5=CCC7C8(C)CCC(OC9OC(CO)C(O)C(O)C9O)C(C)(C)C8CCC7(C)C5(C)CC6O)OCC(O)C4O)C(O)C3O)C2O)C(O)C(O)C1O (stereo not given) | 1.71 |
| CC1=NN(c2ccccc2)C(=O)C1 | -6.05 |
| CCN(CC)CCNC(=O)c1cc(Cl)c(N)cc1OC | -6.04 |
| CC1=CC(=O)C(C(C)C)=CC1=O | -9.44 |
| OCc1cccnc1 | -14.4 |
| CN(C)CCC=C1c2ccccc2COc2ccccc21 | -22 |

3 structures from above, ordered by SMILES length, high to low.

| Compound | growth inhibition [%] |
| --- | --- |
| CN[C@@H]1[C@H](O)[C@H](NC)[C@H]2O[C@@]3(O)C(=O)C[C@@H](C)O[C@H]3O[C@@H]2[C@H]1O | -9.36 |
| O=C(O)C1CC([C@@H]2CCCCN2)CN2CCCCC12 (stereo not given in full) | -1.12 |
| OCc1cccnc1 | -14.4 |

Following part:

| Compound | growth inhibition [%] |
| --- | --- |
| CC(C)[N+](C)(CCOC(=O)C1c2ccccc2Oc2ccccc21)C(C)C | -15.7 |
| CCCc1occc(=O)c1/C=C/O | 2.46 |
| Cc1cccc(C)c1OCC(C)N (stereo not given) | -3.5 |
| CC(C)(C)NCC(O)COc1cccc2nc(O)[nH]c12 (stereo not given) | -11.7 |
| Cc1cc(=O)[nH]c(=S)[nH]1 | -4.37 |
| NC[C@@H]1O[C@H](O[C@H]2[C@@H](O)[C@H](O[C@@H]3[C@@H](O)[C@H](N)C[C@H](N)[C@H]3O[C@H]3O[C@H](CO)[C@@H](O)[C@H](O)[C@H]3N)O[C@@H]2CO)[C@H](N)[C@@H](O)[C@@H]1O | -5.04 |
| COc1cc(C)c2c(c1C=O)Oc1c(c(C)c(O)c3c1C(O)OC3=O)OC2=O (stereo not given) | -12.2 |
| COc1ccccc1OCC(O)CO (stereo not given) | 1.31 |
| Cc1c(N(C)C)c(=O)n(-c2ccccc2)n1C | 7.2 |
| Oc1c(Cl)cc(Cl)c(Cl)c1Cc1c(O)c(Cl)cc(Cl)c1Cl | 2.07 |
| CC(=O)N1CCCC1C(=O)O (stereo not given) | -9.57 |
| CCOC(=O)C1=C(COCCN)NC(C)=C(C(=O)OC)C1c1ccccc1Cl (stereo not given) | -41.6 |
| CCCCCCCCCCCCCCC(C(=O)O)C(O)(CC(=O)OC)C(=O)O (stereo not given) | -5.92 |
| Oc1ccc(/C=C/c2cc(O)cc(O)c2)cc1 | -0.965 |
| CN(C)C(=O)C(CCN1CCC(O)(c2ccc(Cl)cc2)CC1)(c1ccccc1)c1ccccc1 | -5.9 |
| Nc1nc2[nH]cnc2c(=S)[nH]1 | -11.2 |
| O=C1c2c(O)cccc2C([C@@H]2O[C@H](CO)[C@@H](O)[C@H](O)[C@H]2O)c2cc(CO)cc(O)c21 (stereo not given in full) | -2.5 |
| CC(C(=O)O)c1ccc2c(c1)[nH]c1ccc(Cl)cc12 (stereo not given) | -21.1 |
| O=C(O)C1CCCNC1 (stereo not given) | -8.21 |
| COc1cc([S+](C)[O-])ccc1-c1nc2cccnc2[nH]1 (stereo not given) | -24.5 |
| C[C@H]1O[C@@H](O[C@H]2[C@@H](O)C[C@H](O[C@H]3[C@@H](O)C[C@H](O[C@H]4CC[C@@]5(C)[C@H](CC[C@@H]6[C@@H]5C[C@@H](O)[C@]5(C)[C@@H](C7=CC(=O)OC7)CC[C@]65O)C4)O[C@@H]3C)O[C@@H]2C)C[C@H](O)[C@@H]1O | 3.4 |
| O=C(OCC(O)CO)c1ccccc1Nc1ccnc2cc(Cl)ccc12 (stereo not given) | -13 |
| CC(C(=O)O)c1ccc(-c2ccccc2)c(F)c1 (stereo not given) | 25.1 |

Looked up above.
growth inhibition [%] with `Oc1c(Cl)cc(Cl)c(Cl)c1Cc1c(O)c(Cl)cc(Cl)c1Cl` reads 2.07
growth inhibition [%] with `O=C(OCC(O)CO)c1ccccc1Nc1ccnc2cc(Cl)ccc12` (stereo not given) reads -13
growth inhibition [%] with `COc1cc([S+](C)[O-])ccc1-c1nc2cccnc2[nH]1` (stereo not given) reads -24.5

The results go on.

| Compound | growth inhibition [%] |
| --- | --- |
| Cc1cc(O)c2c(c1)C(=O)c1cccc(O)c1C2=O | 1.59 |
| O=c1ccc2cc(O)c(O)cc2o1 | -4.75 |
| C[C@H](CCC(=O)O)[C@H]1CC[C@H]2[C@@H]3[C@H](O)C[C@@H]4C[C@H](O)CC[C@]4(C)[C@H]3C[C@H](O)[C@]12C | -1.87 |
| CC(=O)OC1CCC2(C)C(=CCC3C2CCC2(C)C(C(C)CCCC(C)C)CCC32)C1 (stereo not given) | -17.7 |
| CC(C)=CCC[C@@H](C)[C@H]1CC[C@@]2(C)C3=C(CC[C@]12C)[C@@]1(C)CC[C@H](O)C(C)(C)[C@@H]1CC3 | 2.91 |
| Oc1cc(O)c2c(c1)O[C@H](c1ccc(O)c(O)c1)[C@H](O)C2 | -20.5 |
| COc1ccc2c(c1)c(CC(=O)O)c(C)n2C(=O)c1ccc(Cl)cc1 | 3.91 |
| O=C(O)[C@@H](O)[C@H](O)[C@H](O)[C@@H](O)C(=O)O | 0.397 |
| O=C(C1CCCCC1)N1CC(=O)N2CCc3ccccc3C2C1 (stereo not given) | -20.6 |
| COc1ccc(-c2cc(=O)c3c(O)c(OC)c(O[C@@H]4O[C@H](CO[C@@H]5O[C@@H](C)[C@H](O)[C@@H](O)[C@H]5O)[C@@H](O)[C@H](O)[C@H]4O)cc3o2)cc1 | -7.04 |
| Cn1c(=O)[nH]c(=O)c2[nH]cnc21 | -11 |
| COc1ccc2c(c1OC)C(=O)O[C@@H]2[C@H]1c2c(cc3c(c2OC)OCO3)CCN1C | -10.5 |
| O=C1C=C(O)C(=O)c2ccccc21 | -3.52 |
| C=C1c2c(Cl)ccc(O)c2C(=O)C2=C(O)[C@]3(O)C(=O)C(C(N)=O)=C(O)[C@@H](N(C)C)[C@@H]3[C@@H](O)[C@H]12.O=C(O)c1cc(S(=O)(=O)O)ccc1O | -12.2 |
| CNC[C@H](O)c1ccc(O)c(O)c1 | 0.0859 |
| COC(=O)C[C@H]1C(C)(C)C2(O)OC34CC2C(=O)[C@]1(C)C3CC[C@]1(C)C4=CC(=O)O[C@H]1c1ccoc1 (stereo partly drawn) [8beta-HYDROXYCARAPIN, 3,8-HEMIACETAL] | -5.07 |
| Cn1c(=O)c2nc(C3CCCC3)[nH]c2n(C)c1=O | -9.57 |
| C=CC(C)(O)CCC1C(=C)CC(OC(C)=O)C2C(C)(C)CCCC12C (stereo not given) | -5.73 |
| CN1CCN(CCCN2c3ccccc3Sc3ccc(C(F)(F)F)cc32)CC1 | -27.2 |
| COc1ccc(OC)c(C(O)CNC(=O)CN)c1 (stereo not given) | -6.93 |
| CC[C@H](C)[C@H](N)C1=N[C@H](C(=O)N[C@@H](CC(C)C)C(=O)N[C@H](CCC(=O)O)C(=O)N[C@H](C(=O)N[C@H]2CCCCNC(=O)[C@H](CC(N)=O)NC(=O)[C@@H](CC(=O)O)NC(=O)[C@H](Cc3cnc[nH]3)NC(=O)[C@@H](Cc3ccccc3)NC(=O)[C@H]([C@@H](C)CC)NC(=O)[C@@H](CCCN)NC2=O)[C@@H](C)CC)CS1 | -35.1 |
